The text below walks through data of PubChem BioAssay AID493014 (National Center for Advancing Translational Sciences (NCATS), 2011).

The list shows a part of the results. These are further read-outs of the screen, such as a control signal, another cell line or another target. No call is given for them. Most of these compounds were active or inconclusive in the main read-out, so they are no random draw. The note in brackets gives the kind of curve behind each potency; many fits are weak.

The assay in a line: qHTS Assay to Find Inhibitors of Chronic Active B-Cell Receptor Signaling. The settings on record: ABC-DLBCL IkBa-CBG/CBR reporter, luminescence ratio (green luciferase fused to IkBa over red control in TMD8 lymphoma cells), 4 h. An outline of the steps:
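TMD8 human ABC-DLBCL cells with doxycycline-inducible IκBα–green luciferase fusion and unfused red luciferase, in 0.5% FBS medium; compounds up to 46 uM, 4 h at 37C. Green/red luminescence ratio, filter-overlap corrected, fitted to concentration-response curves.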

Where [1] appears, read: measured here: CBR red luminescence, cell number.
The mark [2] stands for this setting: measured here: IkBa-CBG green luminescence.

For the molecule `O=C(CSc1nc2cc(Cl)ccc2s1)NC1CCCc2ccccc21` (stereo unspecified), the half-maximal activity concentration (AC50) under setting [1] was 0.731 µM [rising, full curve, poor fit]. The same measure, in the same setting: with `CC(=O)N1c2ccccc2N(Cc2ccc(C)cc2C)C(=O)C1(C)C` the figure was 9.2 µM [falling, partial curve]; with `CCN(CC)c1ccc(NC(=O)C2CC3CCC2C3)cc1` (stereo unspecified), 0.631 µM [rising, full curve]. For `C=CCOC(=O)c1sc(NC(=O)c2ccc(OC)cc2)nc1C`, the concentration at half-maximal activity (AC50) is, setting by setting: under setting [1], 0.0891 µM [falling, full curve, poor fit]; under setting [2], 2 µM [rising, full curve, poor fit]. As to `COc1cc2c(cc1OC)C(COc1ccc(F)cc1)N(C(=O)Cc1ccccc1)CC2` (stereo unspecified), the AC50 under setting [1] was 35.5 µM [falling, single point]. The same measure, in the same setting: the figure for `COc1ccccc1-c1cc(C(F)(F)F)nc(S(=O)(=O)CCCC(=O)Nc2cc(C)on2)n1` is 35.5 µM [falling, single point]. On the same count and under the same terms, with `CCn1c(=N)c(S(=O)(=O)c2ccc(F)cc2)cc2c(=O)n3ccccc3nc21` the figure was 3.16 µM [rising, partial curve, poor fit]; with `C=CCSC1=NNC(c2ccc(C(C)(C)C)cc2)=NN1`, 28.2 µM [rising, single point]; with `COc1ccc(/C=N/NC(=O)CN2CCSCC2)cc1C`, 25.9 µM [rising, single point]. On the same count and under the same terms, the figure for `COc1ccc(C(C)=O)cc1CSc1nnc(Nc2ccccc2C)s1` is 6.51 µM [falling, partial curve]; for `CCOC(=O)c1cc(-c2ccccc2)sc1NC(=O)COC(=O)c1cccc(S(N)(=O)=O)c1` it is 3.98 µM [rising, partial curve, poor fit].

Consider `CC1(C)NC(=O)N(CC(=O)N2CCN(c3cccc(Cl)c3)CC2)C1=O`, for which the half-maximal activity concentration (AC50) under setting [1] is 6.51 µM [rising, partial curve, poor fit]. Same read-out and setting: with `CC(C)CNC(=O)COc1ccccc1[N+](=O)[O-]` the figure was 4.61 µM [rising, full curve, poor fit]. Still for that read-out and setting: the figure for `COc1ccc(-c2cc3nc(C)cc(N4CC(C)CC(C)C4)n3n2)cc1` (stereo unspecified) is 18.4 µM [rising, single point]. Still for that read-out and setting: the figure for `CC(=O)N1CCc2cc(Br)cc(S(=O)(=O)NCCCN3CCCC(C)C3)c21` (stereo unspecified) is 6.51 µM [rising, single point]; for `N#CC1=C(N)Oc2c(sc3ccccc23)C1c1ccco1` (stereo unspecified) it is 15.8 µM [falling, single point]; for `C=CCn1c(NC(C)c2cc(Cl)ccc2O)nc2ccccc21` (stereo unspecified) it is 28.2 µM [falling, single point]. In the case of `O=c1nc(N2CCOCC2)nc(N/N=C/c2ccc3c(c2)OCO3)[nH]1`, under setting [1], the concentration at half-maximal activity (AC50) is 22.4 µM [falling, partial curve, poor fit]. In the case of `CCOc1ccc2oc(C(=O)N3CC(C)OC(C)C3)c(C)c2c1` (stereo unspecified), the AC50 under setting [1] was 3.98 µM [rising, partial curve, poor fit]. For the molecule `COc1ccc(C(CCN2CCN(c3ccccc3)CC2)c2c(O)cc(OC)cc2OC)cc1` (stereo unspecified), the concentration at half-maximal activity (AC50) under setting [1] was 0.631 µM [falling, full curve, poor fit]. Still for that read-out and setting: with `CC1=C(C(=O)Nc2ccccc2)C(c2ccc(C)o2)n2c(s/c(=C/c3ccccc3)c2=O)=N1` (stereo unspecified) the figure was 11.6 µM [rising, single point]; with `CCc1ccc(OCC(=O)O/N=C(\N)c2ccccn2)cc1`, 0.708 µM [rising, full curve, poor fit]; with `O=C(c1cc(-c2ccccc2)on1)N1CCCC1`, 2.31 µM [falling, full curve, poor fit].

`O=C(c1ccco1)c1n[nH]nc1-c1ccccc1`: the concentration at half-maximal activity (AC50) under setting [1] was 3.66 µM [falling, partial curve, poor fit].

For the molecule `N=c1c(C(=O)NC2CCCC2)cc2c(=O)n3ccccc3nc2n1C1CCCCC1`, the AC50 under setting [1] is 3.55 µM [rising, full curve, poor fit]. The same measure, in the same setting: with `CC(C)CC1CCCCC1OC(=O)C[N+]1(C)CCCCC1` (stereo unspecified) the figure was 25.1 µM [falling, single point]; with `Cc1ccc(S(=O)(=O)N2CCN(C(=O)c3n[nH]c(=O)c4ccccc34)CC2)c(C)c1`, 29.1 µM [falling, single point].

`COc1cc(C2C(C#N)=C(N)Oc3cc(C)oc(=O)c32)cc2c1OCO2` (stereo unspecified): the half-maximal activity concentration (AC50) under setting [1] was 32.6 µM [rising, single point]. Still for that read-out and setting: with `C=CCC[C@H](Cc1ccc(F)cc1)C(=O)OC[C@@H](Cc1c[nH]c2ccccc12)NC(=O)[C@H](CC=C)CC(=O)N(CCO)Cc1ccccc1` the figure was 20.6 µM [falling, partial curve, poor fit]; with `C/C(=N\Nc1cccc([N+](=O)[O-])c1)c1cc(F)ccc1O`, 35.5 µM [falling, single point]; with `FC(F)(F)c1nc(-c2cccnc2)ncc1-c1nnnn1-c1ccccc1`, 35.5 µM [falling, single point]. With `Cc1nnc(SCC(=O)Nc2cccnc2Cl)s1`, the AC50 under setting [1] was 0.461 µM [rising, full curve, poor fit].

`Cc1cc(C(=O)N/N=C/c2ccccc2)c(C)o1`: the AC50 under setting [1] is 7.94 µM [falling, partial curve, poor fit]. On the same count and under the same terms, with `CN(C)CC1CCCCC1C1(O)c2ccccc2CSc2sccc21` (stereo unspecified) the figure was 29.1 µM [falling, single point]; with `O=C(CSc1ncccn1)n1c2c(c3ccccc31)CCCC2`, 25.1 µM [falling, single point]; with `OCCN(CCO)CC(O)COCCC12CC3CC(CC(C3)C1)C2` (stereo unspecified), 4.11 µM [rising, single point].

Take `CCOC(=O)CSc1nc2cc3c(cc2cc1CC)OCCO3`: under setting [1], the AC50 is 3.66 µM [rising, partial curve, poor fit].

As for `O=C1/C(=C/c2ccco2)SC(=S)N1CCC(=O)N1CCCCC1CCO` (stereo unspecified), under setting [2], the AC50 is 12.6 µM [rising, partial curve, poor fit]. Regarding `O=C(N/N=C/c1cccnc1)c1cc(Br)ccc1O`, under setting [1], the half-maximal activity concentration (AC50) was 1.78 µM [falling, full curve]. The same measure, in the same setting: the figure for `Cc1cc(Nc2ccccc2N2CCOCC2)n2ncnc2n1` is 25.1 µM [rising, single point]; for `CN(c1nc2ccccc2[nH]c1=O)C1CCCCC1` it is 0.316 µM [rising, full curve]. The same measure, in the same setting: the figure for `Cc1ccccc1CSCC(=O)NC(=O)NCc1ccco1` is 22.4 µM [falling, single point]; for `Cc1ccnc(N2C(=O)c3ccccc3C2O)c1` (stereo unspecified) it is 20.6 µM [falling, single point]. On the same count and under the same terms, with `Cc1cc(C)n(-c2ccc(C(=O)NCc3ccc(F)cc3)cc2)n1` the figure was 3.16 µM [rising, partial curve, poor fit]; with `O=C(OCc1nc2ccccc2s1)c1cc2ccccc2oc1=O`, 9.2 µM [rising, partial curve]; with `CC1(C)CC(=O)C(C(c2ccco2)C2C(=O)CC(C)(C)CC2=O)C(=O)C1`, 7.31 µM [rising, partial curve, poor fit]. For the molecule `COc1ccc(CN2C(=O)CC(Cc3cc(C)cc(C)c3)C2=O)cc1OC` (stereo unspecified), under setting [1], the AC50 was 16.4 µM [rising, partial curve].

Take `Cc1cccc2sc(NNC(=O)C3=COCCO3)nc12`: the AC50 under setting [1] is 3.55 µM [rising, single point].

With `O=C(NC(=S)Nc1cccc(NC(=S)NC(=O)c2ccco2)n1)c1ccco1`, the AC50 under setting [2] was 4.47 µM [falling, partial curve, poor fit]. As to `CC1CN(S(=O)(=O)c2cccc(C(=O)OCC(=O)c3cccs3)c2)CC(C)O1` (stereo unspecified), the AC50 under setting [1] was 29.1 µM [rising, single point]. With `Oc1cccc(/C=C/c2ccc3cccc(O)c3n2)c1`, the half-maximal activity concentration (AC50) was 35.5 µM [falling, single point] under setting [1] and 25.1 µM [falling, single point] under setting [2].

For the molecule `COc1ccc(CC(=O)Nc2cc(S(=O)(=O)N3CCOCC3)ccc2N2CCOCC2)cc1`, the AC50 under setting [1] is 6.31 µM [rising, single point]. With `CC1=CC(C)(C)Nc2ccc(OC(=O)CN3C(=O)CCC3=O)cc21`, the AC50 under setting [1] was 10.3 µM [falling, partial curve, poor fit]. The same measure, in the same setting: with `N=C1C(c2ccccc2)=C(O)C2CCc3ccccc3N12` (stereo unspecified) the figure was 12.6 µM [falling, single point].

As for `O=C(NCCc1ccccc1)c1nccc2ccccc12`, the concentration at half-maximal activity (AC50) under setting [1] is 13 µM [falling, partial curve]. Take `Cc1ccc(S(=O)(=O)N(CC(=O)NCc2ccccn2)c2ccc(Cl)cc2)cc1`: under setting [1], the AC50 was 35.5 µM [falling, single point].

Take `C/C(CCc1ccc2c(c1)OCO2)=N\NC(=O)c1ccc(C)cc1C`: the AC50 under setting [1] was 0.794 µM [falling, partial curve, poor fit]. On the same count and under the same terms, with `CC(C)(C)c1cc(-c2csc(Nc3ccccc3)[n+]2Cc2ccc(C(=O)O)cc2)cc(C(C)(C)C)c1O` the figure was 22.4 µM [falling, single point]; with `COc1ccc(CCNC(=O)CSc2nnc(Cc3cccn3C)n2C)cc1OC`, 20 µM [rising, partial curve, poor fit]. For the molecule `CCc1nc(SCC(=O)NCCc2ccc(OC)c(OC)c2)c2c(=O)n(C)c(=O)n(C)c2n1`, under setting [1], the concentration at half-maximal activity (AC50) is 20.6 µM [rising, single point]. The same measure, in the same setting: with `Cc1ccc(NC(=O)COC(=O)Cc2c[nH]c3ccccc23)cc1C` the figure was 4.61 µM [falling, full curve]; with `COc1cc(C(=O)N/N=C/c2ccc(OC(=O)c3ccccc3Cl)c(OC)c2)ccc1O`, 22.4 µM [falling, partial curve, poor fit]. Still for that read-out and setting: with `CN(C)C(=O)c1nnsc1Sc1ccc(Cl)cc1` the figure was 35.5 µM [rising, single point]; with `O=C(c1ccc2c(c1)OCO2)N1CCN=C1SCc1ccccc1`, 7.31 µM [rising, single point].
